# Reference: publication PMC5730846
# Results are given in words; binding and its absence hold for the method and conditions named. Binding seen in cells or lysates may run through a third protein. For some assays here: Binding calls can cover weak binding; strength is not graded here. For some assays here: Where a sequence is shown, tags or fusion partners need not be part of it.
# B1: Tsc1 (hamartin) (protein, UniProt Q92574 1-1164)
# chain: MAQQANVGELLAMLDSPMLGVRDDVTAVFKENLNSDRGPMLVNTLVDYYLETSSQPALHILTTLQEPHDKHLLDRINEYVGKAATRLSILSLLGHVIRLQPSWKHKLSQAPLLPSLLKCLKMDTDVVVLTTGVLVLITMLPMIPQSGKQHLLDFFDIFGRLSSWCLKKPGHVAEVYLVHLHASVYALFHRLYGMYPCNFVSFLRSHYSMKENLETFEEVVKPMMEHVRIHPELVTGSKDHELDPRRWKRLETHDVVIECAKISLDPTEASYEDGYSVSHQISARFPHRSADVTTSPYADTQNSYGCATSTPYSTSRLMLLNMPGQLPQTLSSPSTRLITEPPQATLWSPSMVCGMTTPPTSPGNVPPDLSHPYSKVFGTTAGGKGTPLGTPATSPPPAPLCHSDDYVHISLPQATVTPPRKEERMDSARPCLHRQHHLLNDRGSEEPPGSKGSVTLSDLPGFLGDLASEEDSIEKDKEEAAISRELSEITTAEAEPVVPRGGFDSPFYRDSLPGSQRKTHSAASSSQGASVNPEPLHSSLDKLGPDTPKQAFTPIDLPCGSADESPAGDRECQTSLETSIFTPSPCKIPPPTRVGFGSGQPPPYDHLFEVALPKTAHHFVIRKTEELLKKAKGNTEEDGVPSTSPMEVLDRLIQQGADAHSKELNKLPLPSKSVDWTHFGGSPPSDEIRTLRDQLLLLHNQLLYERFKRQQHALRNRRLLRKVIKAAALEEHNAAMKDQLKLQEKDIQMWKVSLQKEQARYNQLQEQRDTMVTKLHSQIRQLQHDREEFYNQSQELQTKLEDCRNMIAELRIELKKANNKVCHTELLLSQVSQKLSNSESVQQQMEFLNRQLLVLGEVNELYLEQLQNKHSDTTKEVEMMKAAYRKELEKNRSHVLQQTQRLDTSQKRILELESHLAKKDHLLLEQKKYLEDVKLQARGQLQAAESRYEAQKRITQVFELEILDLYGRLEKDGLLKKLEEEKAEAAEAAEERLDCCNDGCSDSMVGHNEEASGHNGETKTPRPSSARGSSGSRGGGGSSSSSSELSTPEKPPHQRAGPFSSRWETTMGEASASIPTTVGSLPSSKSFLGMKARELFRNKSESQCDEDGMTSSLSESLKTELGKDLGVEAKIPLNLDGPHPSPPTPDSVGQLHIMDYNETHHEHS
# B2: Tsc1-D-HA (domain or fragment, UniProt Q92574 998-1164)
# chain: DGCSDSMVGHNEEASGHNGETKTPRPSSARGSSGSRGGGGSSSSSSELSTPEKPPHQRAGPFSSRWETTMGEASASIPTTVGSLPSSKSFLGMKARELFRNKSESQCDEDGMTSSLSESLKTELGKDLGVEAKIPLNLDGPHPSPPTPDSVGQLHIMDYNETHHEHS
# How the values were obtained:
# [1] = target: FLAG-tagged Hsp90α C-domain (human); experiment: co-IP; FLAG-tagged protein transiently expressed in HEK293, immunoprecipitated with anti-FLAG M2 affinity gel; endogenous partners by immunoblot; empty vector control
# [2] = target: FLAG-tagged Hsp90α M-domain (human); experiment: as above
# [3] = target: Hsp90α-FLAG with MEEVD deleted (α∆TPR) (human); experiment: as above
# [4] = target: Hsp90β-FLAG with MEEVD deleted (β∆TPR); experiment: as above
# [5] = target: FLAG-tagged Hsp90α M-domain (human); experiment: co-IP; FLAG-tagged protein co-expressed with HA-tagged Tsc1-D in HEK293; anti-FLAG immunoprecipitation; immunoblot
Binder,binding [1],binding [2],binding [3],binding [4],binding [5]
B1,binds,binds,no binding,no binding,–
B2,–,–,–,–,binds
